Reference: the supplement of paper PMC10849652
Some of the results follow.

Sequences of proteins named here, by UniProt entry; tags and fusion partners are left off. A change or cut given only in a name is not applied to a line headed by its entry.
UniProt Q9NWB6: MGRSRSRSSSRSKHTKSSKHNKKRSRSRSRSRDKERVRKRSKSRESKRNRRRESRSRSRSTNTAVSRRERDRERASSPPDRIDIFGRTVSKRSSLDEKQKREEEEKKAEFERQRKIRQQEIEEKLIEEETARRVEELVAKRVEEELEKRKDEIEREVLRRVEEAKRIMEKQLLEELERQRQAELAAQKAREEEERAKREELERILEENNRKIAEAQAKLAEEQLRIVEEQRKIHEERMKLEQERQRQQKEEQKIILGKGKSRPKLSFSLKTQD
UniProt Q96BM9: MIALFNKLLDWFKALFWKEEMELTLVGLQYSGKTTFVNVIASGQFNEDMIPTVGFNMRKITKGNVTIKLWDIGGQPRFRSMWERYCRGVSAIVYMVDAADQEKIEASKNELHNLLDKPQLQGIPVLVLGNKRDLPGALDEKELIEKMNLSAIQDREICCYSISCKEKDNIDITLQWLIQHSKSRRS
UniProt Q8IW19: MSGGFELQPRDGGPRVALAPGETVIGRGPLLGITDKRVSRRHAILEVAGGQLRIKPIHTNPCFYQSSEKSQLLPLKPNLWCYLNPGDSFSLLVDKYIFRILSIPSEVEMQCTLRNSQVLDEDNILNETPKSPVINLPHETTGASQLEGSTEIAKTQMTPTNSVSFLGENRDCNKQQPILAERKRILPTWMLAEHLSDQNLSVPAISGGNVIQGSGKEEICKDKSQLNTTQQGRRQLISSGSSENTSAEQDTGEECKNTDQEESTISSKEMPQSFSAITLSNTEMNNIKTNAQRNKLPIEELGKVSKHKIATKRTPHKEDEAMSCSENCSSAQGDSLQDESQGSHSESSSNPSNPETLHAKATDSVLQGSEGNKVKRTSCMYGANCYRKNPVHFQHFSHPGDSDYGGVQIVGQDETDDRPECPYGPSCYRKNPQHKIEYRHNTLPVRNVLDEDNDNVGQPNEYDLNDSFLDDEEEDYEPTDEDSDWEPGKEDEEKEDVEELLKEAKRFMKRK
UniProt Q14155: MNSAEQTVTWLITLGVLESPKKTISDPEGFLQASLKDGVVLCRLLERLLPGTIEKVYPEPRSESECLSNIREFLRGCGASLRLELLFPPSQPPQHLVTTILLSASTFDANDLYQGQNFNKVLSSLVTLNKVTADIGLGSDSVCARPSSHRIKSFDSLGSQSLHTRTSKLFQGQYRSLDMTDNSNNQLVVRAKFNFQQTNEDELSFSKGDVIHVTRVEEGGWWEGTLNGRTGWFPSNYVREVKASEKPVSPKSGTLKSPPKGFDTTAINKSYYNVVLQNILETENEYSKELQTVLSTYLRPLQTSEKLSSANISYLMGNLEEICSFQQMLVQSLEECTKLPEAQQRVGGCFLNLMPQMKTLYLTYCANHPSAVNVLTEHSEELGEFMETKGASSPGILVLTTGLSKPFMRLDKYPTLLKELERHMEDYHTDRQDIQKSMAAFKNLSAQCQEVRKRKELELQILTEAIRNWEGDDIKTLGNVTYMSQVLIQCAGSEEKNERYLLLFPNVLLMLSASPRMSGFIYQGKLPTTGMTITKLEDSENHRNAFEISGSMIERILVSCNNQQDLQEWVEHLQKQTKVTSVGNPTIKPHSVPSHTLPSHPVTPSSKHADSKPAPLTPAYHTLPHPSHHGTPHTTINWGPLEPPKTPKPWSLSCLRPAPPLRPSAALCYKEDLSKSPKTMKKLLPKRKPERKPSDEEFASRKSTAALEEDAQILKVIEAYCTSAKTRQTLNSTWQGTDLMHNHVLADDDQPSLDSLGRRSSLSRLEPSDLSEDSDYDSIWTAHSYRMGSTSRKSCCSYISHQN
UniProt Q8TDY4: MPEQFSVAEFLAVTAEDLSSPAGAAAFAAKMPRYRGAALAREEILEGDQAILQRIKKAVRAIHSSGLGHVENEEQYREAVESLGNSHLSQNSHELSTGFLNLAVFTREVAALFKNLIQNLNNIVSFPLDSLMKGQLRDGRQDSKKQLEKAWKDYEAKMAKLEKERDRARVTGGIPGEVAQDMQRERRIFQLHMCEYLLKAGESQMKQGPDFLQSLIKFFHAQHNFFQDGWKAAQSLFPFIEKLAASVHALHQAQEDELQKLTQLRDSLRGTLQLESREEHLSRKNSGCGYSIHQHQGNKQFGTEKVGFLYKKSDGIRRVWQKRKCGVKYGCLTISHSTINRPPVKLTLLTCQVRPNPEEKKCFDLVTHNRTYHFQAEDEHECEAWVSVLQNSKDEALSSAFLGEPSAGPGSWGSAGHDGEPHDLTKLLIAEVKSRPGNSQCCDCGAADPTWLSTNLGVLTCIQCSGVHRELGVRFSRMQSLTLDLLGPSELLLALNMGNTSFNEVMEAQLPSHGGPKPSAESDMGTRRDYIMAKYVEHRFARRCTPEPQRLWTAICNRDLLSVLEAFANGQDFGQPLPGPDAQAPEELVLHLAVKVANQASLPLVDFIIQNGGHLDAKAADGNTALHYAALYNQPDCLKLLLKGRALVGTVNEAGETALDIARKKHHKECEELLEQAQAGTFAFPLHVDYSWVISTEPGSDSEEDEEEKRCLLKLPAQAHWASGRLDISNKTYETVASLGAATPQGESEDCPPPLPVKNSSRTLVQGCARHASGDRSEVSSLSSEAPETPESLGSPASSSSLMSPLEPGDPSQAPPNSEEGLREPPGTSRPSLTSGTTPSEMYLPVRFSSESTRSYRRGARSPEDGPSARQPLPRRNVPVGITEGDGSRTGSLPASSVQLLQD
UniProt P52565: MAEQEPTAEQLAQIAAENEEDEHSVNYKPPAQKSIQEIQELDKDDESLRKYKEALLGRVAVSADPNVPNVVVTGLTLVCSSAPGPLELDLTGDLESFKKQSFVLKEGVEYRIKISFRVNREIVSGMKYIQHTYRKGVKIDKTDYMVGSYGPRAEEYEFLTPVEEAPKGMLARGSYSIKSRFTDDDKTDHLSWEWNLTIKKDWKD
UniProt O95376: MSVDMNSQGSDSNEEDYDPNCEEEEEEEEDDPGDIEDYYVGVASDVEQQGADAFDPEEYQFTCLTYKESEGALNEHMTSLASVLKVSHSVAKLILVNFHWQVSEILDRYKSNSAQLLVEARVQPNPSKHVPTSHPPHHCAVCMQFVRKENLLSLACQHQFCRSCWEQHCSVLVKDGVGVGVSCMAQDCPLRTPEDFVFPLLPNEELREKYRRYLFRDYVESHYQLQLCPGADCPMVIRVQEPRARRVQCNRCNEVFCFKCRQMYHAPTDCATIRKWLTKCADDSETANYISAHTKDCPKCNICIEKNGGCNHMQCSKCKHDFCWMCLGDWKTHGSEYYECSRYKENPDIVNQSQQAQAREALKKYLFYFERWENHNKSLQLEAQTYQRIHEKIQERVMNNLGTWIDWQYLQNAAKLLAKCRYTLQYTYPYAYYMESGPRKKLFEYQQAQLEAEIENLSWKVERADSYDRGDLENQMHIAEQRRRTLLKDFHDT
UniProt Q9BZZ5: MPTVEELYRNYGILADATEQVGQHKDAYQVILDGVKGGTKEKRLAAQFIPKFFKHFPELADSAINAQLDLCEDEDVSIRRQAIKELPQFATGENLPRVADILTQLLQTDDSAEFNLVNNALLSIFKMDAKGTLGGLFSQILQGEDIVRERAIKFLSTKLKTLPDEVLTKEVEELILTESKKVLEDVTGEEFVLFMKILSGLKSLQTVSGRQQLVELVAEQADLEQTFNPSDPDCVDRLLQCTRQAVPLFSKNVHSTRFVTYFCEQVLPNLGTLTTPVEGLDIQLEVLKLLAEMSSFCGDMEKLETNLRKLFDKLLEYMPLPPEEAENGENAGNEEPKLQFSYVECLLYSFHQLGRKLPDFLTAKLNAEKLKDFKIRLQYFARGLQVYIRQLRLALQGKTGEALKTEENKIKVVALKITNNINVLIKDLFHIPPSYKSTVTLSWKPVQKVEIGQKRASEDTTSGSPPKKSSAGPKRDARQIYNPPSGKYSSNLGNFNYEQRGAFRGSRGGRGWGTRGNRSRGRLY
UniProt Q14CB8: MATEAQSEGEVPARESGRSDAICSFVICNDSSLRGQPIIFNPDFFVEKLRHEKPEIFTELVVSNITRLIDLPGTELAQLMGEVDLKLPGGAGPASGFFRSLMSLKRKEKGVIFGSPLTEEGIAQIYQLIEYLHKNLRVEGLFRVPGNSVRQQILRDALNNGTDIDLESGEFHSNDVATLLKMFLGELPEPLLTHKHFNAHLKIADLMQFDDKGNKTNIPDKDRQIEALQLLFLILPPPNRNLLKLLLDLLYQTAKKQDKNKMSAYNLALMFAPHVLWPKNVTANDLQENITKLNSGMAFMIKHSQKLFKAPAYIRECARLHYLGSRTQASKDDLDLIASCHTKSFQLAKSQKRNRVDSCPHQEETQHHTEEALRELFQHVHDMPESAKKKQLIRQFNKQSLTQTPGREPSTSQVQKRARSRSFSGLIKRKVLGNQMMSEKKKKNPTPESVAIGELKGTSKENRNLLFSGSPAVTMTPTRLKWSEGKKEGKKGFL
UniProt Q9H2C2: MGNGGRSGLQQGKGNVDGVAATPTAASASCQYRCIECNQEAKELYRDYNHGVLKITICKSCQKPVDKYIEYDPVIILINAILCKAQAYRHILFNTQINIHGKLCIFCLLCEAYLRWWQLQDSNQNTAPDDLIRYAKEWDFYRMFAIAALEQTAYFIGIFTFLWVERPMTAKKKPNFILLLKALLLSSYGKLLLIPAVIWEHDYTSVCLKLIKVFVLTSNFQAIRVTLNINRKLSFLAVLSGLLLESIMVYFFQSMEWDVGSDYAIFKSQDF
UniProt O15085: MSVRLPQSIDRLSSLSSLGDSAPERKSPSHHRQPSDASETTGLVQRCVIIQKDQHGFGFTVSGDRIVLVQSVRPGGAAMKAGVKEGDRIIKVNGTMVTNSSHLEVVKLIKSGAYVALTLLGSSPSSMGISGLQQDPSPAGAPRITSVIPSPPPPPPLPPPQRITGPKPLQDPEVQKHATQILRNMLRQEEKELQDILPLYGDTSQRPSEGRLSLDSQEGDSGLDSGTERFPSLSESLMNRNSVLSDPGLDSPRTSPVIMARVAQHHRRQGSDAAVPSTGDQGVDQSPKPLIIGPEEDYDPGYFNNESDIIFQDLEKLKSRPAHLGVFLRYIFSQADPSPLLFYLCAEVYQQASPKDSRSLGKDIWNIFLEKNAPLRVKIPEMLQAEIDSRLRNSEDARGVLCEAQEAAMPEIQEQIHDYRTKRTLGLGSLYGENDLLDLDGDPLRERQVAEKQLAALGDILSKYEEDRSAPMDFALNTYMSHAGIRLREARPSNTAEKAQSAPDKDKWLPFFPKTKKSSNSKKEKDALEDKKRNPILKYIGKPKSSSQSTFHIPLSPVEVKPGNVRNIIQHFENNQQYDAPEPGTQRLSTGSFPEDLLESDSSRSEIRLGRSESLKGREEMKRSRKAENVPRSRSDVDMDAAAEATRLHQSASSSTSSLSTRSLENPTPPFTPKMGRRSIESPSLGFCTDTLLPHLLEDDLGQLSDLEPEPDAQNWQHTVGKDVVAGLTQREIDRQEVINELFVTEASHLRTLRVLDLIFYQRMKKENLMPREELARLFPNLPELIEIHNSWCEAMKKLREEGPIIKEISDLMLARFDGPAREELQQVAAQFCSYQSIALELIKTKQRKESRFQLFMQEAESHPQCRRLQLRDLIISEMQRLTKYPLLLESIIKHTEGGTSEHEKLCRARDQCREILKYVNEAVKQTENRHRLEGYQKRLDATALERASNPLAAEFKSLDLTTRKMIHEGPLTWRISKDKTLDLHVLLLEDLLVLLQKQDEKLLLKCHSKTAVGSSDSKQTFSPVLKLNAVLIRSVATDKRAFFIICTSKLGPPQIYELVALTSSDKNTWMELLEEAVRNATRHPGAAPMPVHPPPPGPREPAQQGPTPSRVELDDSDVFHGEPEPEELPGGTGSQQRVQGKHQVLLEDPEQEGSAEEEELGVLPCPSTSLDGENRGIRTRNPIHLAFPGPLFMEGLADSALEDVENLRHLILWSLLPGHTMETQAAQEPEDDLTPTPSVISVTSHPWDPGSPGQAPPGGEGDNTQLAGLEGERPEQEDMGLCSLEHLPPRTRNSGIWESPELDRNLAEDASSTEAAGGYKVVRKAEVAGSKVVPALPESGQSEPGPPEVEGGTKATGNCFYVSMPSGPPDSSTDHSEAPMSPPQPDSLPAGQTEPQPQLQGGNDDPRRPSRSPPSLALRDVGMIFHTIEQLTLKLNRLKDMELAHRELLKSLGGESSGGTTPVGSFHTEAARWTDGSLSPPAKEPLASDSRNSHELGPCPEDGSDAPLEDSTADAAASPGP
UniProt P53367: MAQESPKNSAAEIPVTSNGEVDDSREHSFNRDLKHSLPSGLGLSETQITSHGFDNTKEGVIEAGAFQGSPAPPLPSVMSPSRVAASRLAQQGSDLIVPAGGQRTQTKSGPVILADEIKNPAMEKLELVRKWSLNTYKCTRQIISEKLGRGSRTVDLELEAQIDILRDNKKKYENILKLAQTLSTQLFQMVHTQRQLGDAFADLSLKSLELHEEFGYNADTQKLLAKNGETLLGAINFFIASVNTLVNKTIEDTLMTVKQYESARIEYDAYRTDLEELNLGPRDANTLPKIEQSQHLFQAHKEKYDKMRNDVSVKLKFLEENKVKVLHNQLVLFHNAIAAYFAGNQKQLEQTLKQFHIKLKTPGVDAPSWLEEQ

Columns and labels:
Test in all cases: log2 fold change, soluble protein after heating vs DMSO (PISA); higher = thermal stabilisation; K562 lysate, 10 uM; active = over 0.2 and 3.5 SD of the protein, either way, in both replicates (recomputed)
[1] = compound: C1=CC=C(C=C1)[C@H](COC2=CC3=C(C=C2)NC(=O)N3)NC(=O)C4=CC=CN(C4=O)CC5=CC(=C(C=C5)F)F
How it was run: (§1)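 Pellets of K562 cells were dounce-homogenised in PBS pH 7.4 with 1 mM MgCl2, and the crude extract was held at 1 mg/mL protein for a 30 min treatment with 10 μM compound. Aliquots were heated for 3 min over 48°C-58°C and pooled before NP-40 was added to 0.5% at 4°C. The supernatant from 21,000xg for 90 min was quantified by TMTpro 16plex LC-MS/MS with channel sums equalised. Values are reported from duplicates as log-two fold change in thermal stability relative to solvent controls.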

[2] = compound: CC1=C(SC2=C1C(=N[C@H](C3=NN=C(N32)C)CC(=O)N)C4=CC=C(C=C4)Cl)C
How it was run: as §1

[3] = compound: CC1=C2C(=CC=C1)N=C(N(C2=O)C3=CC=CC=C3C)CN4C=NC5=C(N=CN=C54)N
How it was run: as §1

[4] = compound: Cc1sc2c(c1C)C(c1ccc(Cl)cc1)=N[C@@H](CC(=O)OC(C)(C)C)c1nnc(C)n1-2
How it was run: as §1

[5] = compound: c1ccc([C@@H]2C[C@H]2NC2CCNCC2)cc1
How it was run: as §1

Measured: log2 fold change

ARID1B isoform 3 (UniProt Q8NFD5)
inactive: [1] 0.015 | [2] 0.008 | [3] 0.004 | [4] 0.061 | [5] 0.063

ARID3A (UniProt Q99856)
inactive: [1] -0.034 | [2] 0.01 | [3] -0.021 | [4] 0.034 | [5] 0.059

ARGLU1 (UniProt Q9NWB6)
inactive: [1] 0.049 | [2] 0.009 | [3] 0.036 | [4] -0.026 | [5] 0.074

ARHGAP27 (UniProt Q6ZUM4)
inactive: [1] -0.114 | [2] -0.101 | [3] 0.063

APOBEC3C (UniProt Q9NRW3)
inactive: [1] -0.003 | [2] 0.032 | [3] 0.013 | [4] 0.014 | [5] -0.062

ARL1 (UniProt P40616)
inactive: [1] 0.094 | [2] 0.023 | [3] 0.051 | [4] -0.026 | [5] 0.026

ARPC2 (UniProt O15144)
inactive: [1] 0.031 | [2] 0 | [3] 0.008 | [4] -0.007 | [5] 0

ARL8A (UniProt Q96BM9)
inactive: [1] 0.038 | [2] -0.02 | [3] -0.157 | [4] 0.093 | [5] 0.1

ARID3B (UniProt Q8IVW6)
inactive: [1] -0.074 | [2] -0.038 | [3] 0.108 | [4] -0.018 | [5] 0

APLF (UniProt Q8IW19)
inactive: [1] -0.031 | [2] 0.122 | [3] -0.028

APOH (UniProt P02749)
inactive: [1] -0.068 | [2] 0.014

ARHGEF7 isoform 5 (UniProt Q14155)
inactive: [1] -0.035 | [2] 0.039 | [3] 0.008 | [4] 0.011 | [5] 0.025

ASAP3 (UniProt Q8TDY4)
inactive: [1] 0.078 | [2] 0 | [3] 0.012 | [4] 0.039 | [5] 0.063

ARNT (UniProt P27540)
inactive: [1] 0.036 | [2] 0.001 | [3] 0.092 | [4] 0 | [5] -0.038

ARHGDIA (UniProt P52565)
inactive: [1] 0.036 | [2] 0.003 | [3] 0.003 | [4] 0.008 | [5] -0.052

ARPIN isoform 2 (UniProt Q7Z6K5)
inactive: [1] -0.019 | [2] 0.034 | [3] 0.109 | [4] -0.159 | [5] -0.021

AQR (UniProt O60306)
inactive: [1] 0.014 | [2] -0.014 | [3] -0.026 | [4] 0.01 | [5] 0.04

APRT (UniProt P07741)
inactive: [1] -0.027 | [2] 0.004 | [3] 0.021 | [4] 0.023 | [5] -0.02

ARRB1 isoform 2 (UniProt P49407)
inactive: [1] 0.054 | [2] 0.1 | [3] 0.043 | [4] -0.015

ARPC3 (UniProt O15145)
inactive: [1] 0.023 | [2] -0.032 | [3] -0.058 | [4] 0.03 | [5] 0.084

ARIH2 (UniProt O95376)
inactive: [1] 0.001 | [2] -0.001 | [3] 0.039 | [4] -0.001 | [5] -0.076

ARID4B (UniProt Q4LE39)
inactive: [1] -0.009 | [2] -0.019 | [3] -0.003 | [4] -0.021 | [5] 0.035

APOA1 (UniProt P02647)
inactive: [1] 0.006 | [2] -0.183 | [3] -0.036 | [4] -0.136 | [5] -0.06

APOB (UniProt P04114)
inactive: [1] -0.009 | [2] 0.039 | [3] 0.023 | [4] -0.168 | [5] -0.109

ARF3 (UniProt P61204)
inactive: [1] 0.029 | [2] -0.018 | [3] -0.012 | [4] 0.045 | [5] -0.066

ARMC8 (UniProt Q8IUR7)
inactive: [1] 0.048 | [2] 0 | [3] -0.009 | [4] 0.002 | [5] 0.022

ARL2BP (UniProt Q9Y2Y0)
inactive: [1] -0.086 | [2] 0.019 | [3] -0.031 | [4] -0.022 | [5] 0.013

AP4S1 (UniProt Q9Y587)
inactive: [1] 0.003 | [2] -0.005 | [3] 0.101 | [4] 0.017 | [5] -0.029

APOO (UniProt Q9BUR5)
inactive: [1] -0.046 | [2] -0.021 | [3] 0.015 | [4] 0.003 | [5] -0.036

API5 isoform 2 (UniProt Q9BZZ5)
inactive: [1] 0.047 | [2] -0.026 | [3] 0.01 | [4] 0.003 | [5] 0.14

ARL6IP5 (UniProt O75915)
inactive: [1] -0.038 | [2] -0.068 | [3] -0.018 | [4] -0.003 | [5] 0.083

APBA2 (UniProt Q99767)
inactive: [1] -0.014 | [2] 0.033 | [3] 0.017 | [4] -0.007 | [5] -0.106

AP5Z1 (UniProt O43299)
inactive: [1] 0.044 | [2] 0.027 | [3] 0.093 | [4] -0.151 | [5] -0.058

ARL2 (UniProt P36404)
inactive: [1] 0.01 | [2] 0.036 | [3] 0.005 | [4] 0.03 | [5] 0.059

ARIH1 (UniProt Q9Y4X5)
inactive: [1] 0.02 | [2] -0.048 | [3] -0.005 | [4] -0.06 | [5] -0.05

ARFGAP1 (UniProt Q8N6T3)
inactive: [1] 0.037 | [2] -0.091 | [3] 0.149 | [4] -0.081 | [5] -0.127

ARHGAP19 isoform 2 (UniProt Q14CB8)
inactive: [1] 0.071 | [2] -0.259 | [3] 0.047 | [4] -0.065

AP4M1 (UniProt O00189)
inactive: [1] -0.03 | [2] -0.002 | [3] 0.046 | [4] 0.062 | [5] -0.093

ARL6IP4 isoform 7 (UniProt Q66PJ3)
inactive: [1] 0.159 | [2] -0.304

ARHGAP5 (UniProt Q13017)
inactive: [1] 0 | [2] 0.01 | [3] 0.016 | [4] -0.03 | [5] -0.033

ARHGAP21 (UniProt Q5T5U3)
inactive: [1] 0.031 | [2] 0.117 | [3] 0.031 | [4] 0.008 | [5] 0.124

APC (UniProt P25054)
inactive: [1] -0.019 | [2] 0.053 | [3] 0.087 | [4] -0.016 | [5] 0.111

ARF5 (UniProt P84085)
inactive: [1] 0.05 | [2] -0.04 | [3] 0.01 | [4] 0.017 | [5] -0.056

ARPC1A (UniProt Q92747)
inactive: [1] 0.03 | [2] -0.041 | [3] 0.017 | [4] -0.029 | [5] 0.01

ARV1 (UniProt Q9H2C2)
inactive: [1] -0.085 | [2] -0.075 | [3] -0.044 | [4] -0.034 | [5] 0.01

API5 (UniProt Q9BZZ5)
inactive: [1] 0.001 | [2] 0.01 | [3] 0.005 | [4] -0.037 | [5] -0.11

APAF1 (UniProt O14727)
inactive: [1] -0.013 | [2] 0.004 | [3] 0.022 | [4] 0.012 | [5] 0.02

ARL15 (UniProt Q9NXU5)
inactive: [1] 0.02 | [2] -0.005 | [3] 0.018 | [4] -0.009 | [5] 0.269

ARHGEF11 isoform 2 (UniProt O15085)
inactive: [1] 0.056 | [2] 0.045 | [3] -0.067 | [4] -0.026 | [5] 0.1

ARFIP1 (UniProt P53367)
inactive: [1] -0.029 | [2] 0.006 | [3] -0.002 | [4] -0.064 | [5] -0.01

APMAP (UniProt Q9HDC9)
inactive: [1] -0.005 | [2] -0.022 | [3] -0.001 | [4] -0.061 | [5] 0.005

APIP (UniProt Q96GX9)
inactive: [1] -0.025 | [2] -0.034 | [3] 0.052 | [4] -0.012 | [5] -0.196

ARMC1 (UniProt Q9NVT9)
inactive: [1] 0.003 | [2] 0.017 | [3] 0.025 | [4] 0 | [5] -0.01

ASAP1 isoform 2 (UniProt Q9ULH1)
inactive: [1] 0.03 | [2] -0.001 | [3] 0.006 | [4] -0.046 | [5] 0.028

ARPP19 (UniProt H3BMD8)
inactive: [1] 0.034 | [2] -0.014 | [3] -0.064 | [4] -0.062 | [5] -0.152
